Paper doi:10.1101/2020.07.14.203299 (bioRxiv, 2020)
Where two headings read alike, the source gives them in different places. Results are given in words; binding and its absence hold for the method and conditions named. For some assays here: In cells and extracts the contact can be indirect. Some results given as binding are weak or reduced against the parent protein; the word gives no strength.

What was measured:
Assay in all cases: pull-down
[1] = molecular target: GST-FlgN (Salmonella enterica serovar Typhimurium) (UniProt P0A1J7)
[2] = molecular target: GST-FliJ over-expressed in MMHI0117 cells (Salmonella enterica serovar Typhimurium) (UniProt P0A1K1)
[3] = molecular target: GST-FlgN (Salmonella enterica serovar Typhimurium) (UniProt P0A1J7); remark: listed apart in the source
[4] = molecular target: GST-FlgN/FlgK/FliJ complex (Salmonella enterica serovar Typhimurium) (UniProt P0A1J7)
[5] = molecular target: GST-FliJ over-expressed in MMHI0117 cells (Salmonella enterica serovar Typhimurium) (UniProt P0A1K1); remark: listed apart in the source

“FliJ (in the GST-FlgN/FlgK/FliJ complex) (from UniProt P0A1K1 1-147)” was tested, and the binding [1] was “binds”.

For FlgN (from UniProt P0A1J7 1-140), the binding [2] was “binds”.

B1: FlhA_(C38K) lacking residues 328–351 of FlhAL (domain or fragment, UniProt P40729 352-692)
chain: ATWNDVQLEDSLGMEVGYRLIPMVDFQQDGELLGRIRSIRKKFAQDMGFLPPVVHIRDNMDLQPARYRILMKGVEIGSGDAYPGRWLAINPGTAAGTLPGEKTVDPAFGLDAIWIESALKEQAQIQGFTVVEASTVVATHLNHLIGQFSAELFGRQEAQQLLDRVSQEMPKLTEDLVPGVVTLTTLHKVLQNLLAEKVPIRDMRTILETLAEHAPLQSDPHELTAVVRVALGRAITQQWFPGNEEVQVIGLDTALERLLLQALQGGGGLEPGLADRLLAQTQEALSRQEMLGAPPVLLVNHALRPLLSRFLRRSLPQLVVLSNLELSDNRHIRMTATIGGK
With B1 the binding [3] was “binds” and the binding [4] was “binds”.

B2: FlhA (protein, UniProt P40729 1-692)
chain: MANLVAMLRLPSNLKSTQWQILAGPILILLILSMMVLPLPAFILDLLFTFNIALSIMVLLVAMFTQRTLDFAAFPTILLFTTLLRLALNVASTRIILMEGHTGAAAAGKVVEAFGHFLVGGNFAIGIVVFIILVIINFMVITKGAGRIAEVGARFVLDGMPGKQMAIDADLNAGLIGEDEAKKRRSEVTQEADFYGSMDGASKFVRGDAIAGILIMVINVVGGLLVGVLQHGMSIGSAAESYTLLTIGDGLVAQIPALVISTAAGVIVTRVSTDQDVGEQMVGQLFSNPRVMLLAAAVLGLLGMVPGMPNLVFLLFTAALLGLAWWLRGREEKAPEEPQPVKMPENNSVVEATWNDVQLEDSLGMEVGYRLIPMVDFQQDGELLGRIRSIRKKFAQDMGFLPPVVHIRDNMDLQPARYRILMKGVEIGSGDAYPGRWLAINPGTAAGTLPGEKTVDPAFGLDAIWIESALKEQAQIQGFTVVEASTVVATHLNHLIGQFSAELFGRQEAQQLLDRVSQEMPKLTEDLVPGVVTLTTLHKVLQNLLAEKVPIRDMRTILETLAEHAPLQSDPHELTAVVRVALGRAITQQWFPGNEEVQVIGLDTALERLLLQALQGGGGLEPGLADRLLAQTQEALSRQEMLGAPPVLLVNHALRPLLSRFLRRSLPQLVVLSNLELSDNRHIRMTATIGGK
In the case of B2, the binding [5] is reported as “binds”.
